PubChem BioAssay AID1259254, NCATS – 2017
Shown is an unselected part of about 59,000 reagents. Over the whole deposit, about 1,550 (2.6%) got an active call. 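G2 share is only a proxy for re-replication; each gene was hit by three separate siRNAs, and active genes were retested.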 The numbers tell different reagents against one gene apart. Further read-outs or replicates are left out here. Not stated in the record: the amount of reagent.

Screen: 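Finding genes that stop cells copying their DNA twice in one cycle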 (primary screen)
Cells: human HCT116 colorectal cancer cells
Reagent: single siRNA against human genes
Duration: 3 days
Measured: 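Imaged Hoechst DNA stain sorts each cell into a cycle phase by DNA amount; per plate, G2 fraction set to 0% for non-targeting and 100% for GMNN siRNA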
Scale: G2 robust z-score: higher = more G2 cells, more excess DNA replication
Active means: 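An siRNA counts as active if its G2 robust z-score lies at least 5 MADs above the screen median; here such calls match roughly 38% of GMNN control or more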

RABL6 (RAB, member RAS oncogene family like 6) #1 → G2 robust z-score: 1.37; activity call: inactive
RABL6 (RAB, member RAS oncogene family like 6) #2 → G2 robust z-score: 1.54; activity call: inactive
RABL6 (RAB, member RAS oncogene family like 6) #3 → G2 robust z-score: 0.318; activity call: inactive
ANKRD20A3P (ankyrin repeat domain 20 family member A3, pseudogene) #1 → G2 robust z-score: 1.98; activity call: inactive
ANKRD20A3P (ankyrin repeat domain 20 family member A3, pseudogene) #2 → G2 robust z-score: 0.829; activity call: inactive
ANKRD20A3P (ankyrin repeat domain 20 family member A3, pseudogene) #3 → G2 robust z-score: 1.35; activity call: inactive
LOC729047 (retired record) #1 → G2 robust z-score: -0.199; activity call: inactive
LOC729047 (retired record) #2 → G2 robust z-score: -0.604; activity call: inactive
LOC729047 (retired record) #3 → G2 robust z-score: -0.321; activity call: inactive

Already shown: entries from further up.
ANKRD20A3P (ankyrin repeat domain 20 family member A3, pseudogene) #2 → G2 robust z-score: 0.829; activity call: inactive
ANKRD20A3P (ankyrin repeat domain 20 family member A3, pseudogene) #3 → G2 robust z-score: 1.35; activity call: inactive

Further results:
C16orf96 (chromosome 16 open reading frame 96) #1 → G2 robust z-score: 6.7; activity call: active
C16orf96 (chromosome 16 open reading frame 96) #2 → G2 robust z-score: -0.607; activity call: inactive
C16orf96 (chromosome 16 open reading frame 96) #3 → G2 robust z-score: 0.444; activity call: inactive
NUP210 (nucleoporin 210) #1 → G2 robust z-score: 0.578; activity call: inactive
NUP210 (nucleoporin 210) #2 → G2 robust z-score: -0.633; activity call: inactive
NUP210 (nucleoporin 210) #3 → G2 robust z-score: -0.156; activity call: inactive
SPDEF (SAM pointed domain containing ETS transcription factor) #1 → G2 robust z-score: -0.144; activity call: inactive
SPDEF (SAM pointed domain containing ETS transcription factor) #2 → G2 robust z-score: 0.799; activity call: inactive
SPDEF (SAM pointed domain containing ETS transcription factor) #3 → G2 robust z-score: -0.901; activity call: inactive
